Measured values reported in patent US5559209A, “Regulator regions of G proteins” (The General Hospital Corporation, priority 1993, dated 1996).
At least one peptide structure holds a part that was inferred or is arguable (an end, a ring closure or a residue). Where no end group is shown, it is not given here.

Amino acid sequences for entries named in this document (tags omitted). Residues count along the entry.
UniProt P04896, 2-394 limits assumed: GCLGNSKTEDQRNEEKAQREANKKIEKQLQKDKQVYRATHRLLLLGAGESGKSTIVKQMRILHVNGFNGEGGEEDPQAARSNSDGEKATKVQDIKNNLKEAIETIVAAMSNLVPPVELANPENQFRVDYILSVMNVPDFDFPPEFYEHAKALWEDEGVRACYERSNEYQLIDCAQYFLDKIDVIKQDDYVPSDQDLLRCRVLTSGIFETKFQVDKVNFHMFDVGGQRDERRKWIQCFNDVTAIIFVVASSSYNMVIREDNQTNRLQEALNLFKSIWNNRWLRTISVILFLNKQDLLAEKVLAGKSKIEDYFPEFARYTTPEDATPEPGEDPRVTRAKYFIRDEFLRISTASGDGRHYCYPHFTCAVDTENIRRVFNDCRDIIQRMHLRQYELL

Tests used:
Gs = target: T1, Gs (Bos taurus, UniProt P04896); test: GTPγS binding, βIII-2-induced Gs activation; assay type: biochemical, bovine
T1 construct: Trimeric Gs and Gβγ purified from bovine brain to near homogeneity; from tissue; host or cells: bovine brain
Protocol: Materials and Methods The in vitro assays described below utilize the couplone portion of each of a number of G-coupled receptors, instead of an intact receptor molecule, as a means for activating the corresponding anticouplone or intact G-protein. Except as noted below, Gi2 used in this study was trimeric Gi2 (i.e., Gi2 αβγ) purified from bovine brain to near homogeneity (Katada et al., FEBS Lett. 213:353-358 (1987), stored in buffer A (20 mM hepes/NaOH (pH 7.4), 1 mM EDTA, and 0.7% CHAPS), and diluted≥10 fold for assays. The Gi2 used for the reconstitution experiment was trimeric Gi2 purified from bovine spleen to homogeneity and dissolved in buffer B (Morishita et al., 1989). Gi3 α (Morishita et al., Biochem. Biophys. Res. Commun. 172:249-255 (1990), was purified from bovine spleen and used in combination with 1.5-fold concentrated Gβγ (Katada et al., 1987). This preparation of Gi3 α was 10-20% contaminated by Gi1 α, but not by other G proteins. Trimeric Gs and Gβγ purified from bovine brain to near homogeneity (Katada et al., 1987) were also stored in buffer A.
GTPγS binding Assay--GTPγS binding to G proteins was assayed at 37° C. in 20 mM Hepes/NaOH buffer (pH 7.4) containing 130 μM MgCl2, 110 μM EDTA and 60 nM [^35 S]GTPγS, as described previously (Okamoto et al., 1990). GTPγS binding to polypeptides was negligible. The total amount of G protein was measured as maximal GTPγS binding at room temperature, as described (Okamoto et al., Cell 67:723-730, 1991a). [^35 S]GTPγS was purchased from DuPont-New England Nuclear. […] Thus, the apparent first-order rate constant for GTPγS binding (kapp), which is equal to the slope of the tangent to the GTPγS binding curve at time 0 and represents the actual GTPγS binding rate, was calculated from this equation.
GTPβS binding was measured following incubation of solubilized Gs at 10 nM with 1 μM βIII-2 (RRSSKFCLKEHKALK; SEQ ID NO: 29) in the presence of ACGi2 for 10 min. […]

T cell receptor = test: OKT3-induced polyphosphoinositide turnover in Jurkat cells; assay type: cell-based, human; conditions: 500 μM peptide, OKT3 1:100 for 5 min
Protocol: Inhibition of T cell receptor function with ACGq. T cell receptor stimulation by monoclonal antibody OKT^3 in Jurkat cells, a line of human T cells, induces measurable polyphosphoinositide (PI) turnover. 10^7 cells were labelled with 5 μCi/ml [^3 H]myoinositol in inositol-free RPMI1640 for 12 hours. After incubating the cells with 500 μM ACGq, samples containing 5×10^5 cells were then exposed to the monoclonal antibody OKT3 (Ortho) at 1:100 dilution for 5 min. Perchloric acid was added to a final concentration of 10% to lyse the cells and terminate the reaction. Cell lysates were collected into tubes and brought to pH>8 by the addition of KOH. Following centrifugation of the lysates, the supernatants were passed over a DOWX anion exchange column (Muromachi Chemicals, Japan) to separate inositol polyphosphates (IPs) from other inositol metabolites, and the amount of [^3 H] label in the inositol trisphosphate (IP3) fraction assessed.

[1] = tested on: heart muscle fibrosis in myopathic syrian hamsters BIO 53.58; test: Cardiac fibrosis in myopathic hamsters; assay type: in vivo, syrian hamster; conditions: intraperitoneal 5 μl of 10 mM peptide once a week for 6 weeks, 10-week-old hamsters

## DAVTDVIIKNNLKDC [ACGi2, DAVTDVIIKNNLKDC]
Gs; 1 μM ACGi2, 10 nM Gs, 1 μM βIII-2, 10 min
  effect on βIII-2-induced Gs activation: no effect
Gs; higher concentrations of ACGi2
  effect on Gs stimulation at higher concentrations: positive rather than inhibitory effect
T cell receptor
  effect of pretreatment on stimulation of the cells by OKT3: did not inhibit stimulation
[1]
  heart muscle fibrosis (collagen, sirius red): remarkably diminished collagen fiber formation
